In publication PMC12046912:
Results are given in words; binding and its absence hold for the method and conditions named. Binding seen in cells or lysates may run through a third protein. Some results given as binding are weak or reduced against the parent protein; the word gives no strength.

Biological target: T1, CD109 (Cluster of Differentiation 109) (human (endogenous in A431 and SCC9)), Q6YHK3
T1 chain: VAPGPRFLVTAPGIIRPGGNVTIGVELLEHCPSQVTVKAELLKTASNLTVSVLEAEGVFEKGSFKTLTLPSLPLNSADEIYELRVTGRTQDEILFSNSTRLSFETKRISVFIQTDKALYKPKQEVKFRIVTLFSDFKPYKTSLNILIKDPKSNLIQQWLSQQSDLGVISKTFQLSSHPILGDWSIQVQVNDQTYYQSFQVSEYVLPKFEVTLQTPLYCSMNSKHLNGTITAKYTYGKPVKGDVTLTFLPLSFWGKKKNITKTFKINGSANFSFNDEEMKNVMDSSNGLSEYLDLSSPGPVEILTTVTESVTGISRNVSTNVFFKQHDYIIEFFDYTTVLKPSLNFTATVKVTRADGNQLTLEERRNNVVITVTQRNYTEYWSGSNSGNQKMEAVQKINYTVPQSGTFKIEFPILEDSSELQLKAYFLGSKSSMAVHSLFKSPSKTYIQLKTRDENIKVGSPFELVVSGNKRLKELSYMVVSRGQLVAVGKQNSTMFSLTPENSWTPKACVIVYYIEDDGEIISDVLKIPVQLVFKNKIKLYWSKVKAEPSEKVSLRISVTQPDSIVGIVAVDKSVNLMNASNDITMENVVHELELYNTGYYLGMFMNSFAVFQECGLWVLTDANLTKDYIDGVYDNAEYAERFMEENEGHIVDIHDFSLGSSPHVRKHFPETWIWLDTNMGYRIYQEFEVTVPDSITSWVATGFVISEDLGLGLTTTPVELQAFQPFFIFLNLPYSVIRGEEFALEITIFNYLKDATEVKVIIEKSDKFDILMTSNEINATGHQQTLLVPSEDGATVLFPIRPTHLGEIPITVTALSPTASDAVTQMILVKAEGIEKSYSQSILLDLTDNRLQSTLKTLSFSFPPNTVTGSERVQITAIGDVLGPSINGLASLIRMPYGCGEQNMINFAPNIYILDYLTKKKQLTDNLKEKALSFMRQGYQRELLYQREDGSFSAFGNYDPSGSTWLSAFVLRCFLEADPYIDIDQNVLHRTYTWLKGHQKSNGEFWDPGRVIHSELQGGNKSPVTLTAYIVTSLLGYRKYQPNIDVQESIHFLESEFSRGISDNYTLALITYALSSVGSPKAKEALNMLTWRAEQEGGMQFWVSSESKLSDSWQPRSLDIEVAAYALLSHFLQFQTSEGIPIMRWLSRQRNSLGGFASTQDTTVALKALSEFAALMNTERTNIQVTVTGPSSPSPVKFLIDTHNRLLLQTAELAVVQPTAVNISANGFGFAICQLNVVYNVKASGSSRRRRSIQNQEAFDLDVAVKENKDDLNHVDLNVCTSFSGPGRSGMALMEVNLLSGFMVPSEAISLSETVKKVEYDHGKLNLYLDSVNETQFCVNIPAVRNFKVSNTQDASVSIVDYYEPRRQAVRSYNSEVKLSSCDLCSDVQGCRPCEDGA
Experiment: co-IP; endogenous proteins in total cell lysates (Pierce IP Lysis Buffer); 500 μg protein with 2.5 μg/ml antibody (anti-CD109, anti-IL6Rα, anti-STAT3 or anti-NRF2) overnight at 4 °C, Protein G magnetic beads, Western blot; control IgG; cells without or with 20 ng/ml IL-6 (25 min by the methods; overnight for STAT3-NRF2 by the legend of Fig. 7A)
Details: remark: other sources report otherwise

- binding: binds
B1: Glycoprotein 130, P40189 23-918 (receptor)
chain: ELLDPCGYISPESPVVQLHSNFTAVCVLKEKCMDYFHVNANYIVWKTNHFTIPKEQYTIINRTASSVTFTDIASLNIQLTCNILTFGQLEQNVYGITIISGLPPEKPKNLSCIVNEGKKMRCEWDGGRETHLETNFTLKSEWATHKFADCKAKRDTPTSCTVDYSTVYFVNIEVWVEAENALGKVTSDHINFDPVYKVKPNPPHNLSVINSEELSSILKLTWTNPSIKSVIILKYNIQYRTKDASTWSQIPPEDTASTRSSFTVQDLKPFTEYVFRIRCMKEDGKGYWSDWSEEASGITYEDRPSKAPSFWYKIDPSHTQGYRTVQLVWKTLPPFEANGKILDYEVTLTRWKSHLQNYTVNATKLTVNLTNDRYLATLTVRNLVGKSDAAVLTIPACDFQATHPVMDLKAFPKDNMLWVEWTTPRESVKKYILEWCVLSDKAPCITDWQQEDGTVHRTYLRGNLAESKCYLITVTPVYADGPGSPESIKAYLKQAPPSKGPTVRTKKVGKNEAVLEWDQLPVDVQNGFIRNYTIFYRTIIGNETAVNVDSSHTEYTLSSLTSDTLYMVRMAAYTDEGGKDGPEFTFTTPKFAQGEIEAIVVPVCLAFLLTTLLGVLFCFNKRDLIKKHIWPNVPDPSKSHIAQWSPHTPPRHNFNSKDQMYSDGNFTDVSVVEIEANDKKPFPEDLKSLDLFKKEKINTEGHSSGIGGSSCMSSSRPSISSSDENESSQNTSSTVQYSTVVHSGYRHQVPSVQVFSRSESTQPLLDSEERPEDLQLVDHVDGGDGILPRQQYFKQNCSQHESSPDISHFERSKQVSSVNEEDFVRLKQQISDHISQSCGSGQMKMFQEVSAADAFGPGTEGQVERFETVGMEAATDEGMPKSYLPQTVRQGGYMPQ
